Test results published in patent publication US7807437B2, “Variants of hepatitis B virus resistant against some nucleoside analogues, but sensitive to others, and uses thereof” (priority 2005, dated 2010).
At least one structure is not confirmed: it was looked up by name or label, or the drawing left a doubt.

Tested on: rtI233V variant
Assay: Inhibition of intracellular HBV DNA synthesis in vitro (transfected C3A cells, Southern blot of replicative intermediates)
Type: cell-based, Hepatitis B virus
Settings: 0.1 μM to 10 μM
Text: Inhibition of intracellular HBV DNA synthesis in vitro by increasing concentrations of adefovir (ADF), tenofovir (TNF), and lamivudine (3TC). Southern blots of extracts obtained 6 days after transfection were quantitatively evaluated by phosphoimaging and related to untreated controls. wt HBV genotype D (♦) and the rtI233V variant (●).
To determine whether the rtI223V exchange alone is necessary and sufficient to mediate resistance of HBV to adefovir, the isoleucine 233 of the plasmid vector pTHBV1.3 for wildtype (wt) HBV genotype D (Guidotti et al., 1995) was mutated to valine by site-directed mutagenesis using the primer pair sense 5′-CTT TTG TCT TTG GGT gTA CAT TTA AAC CCT AAC-3′ (SEQ ID NO 32) and antisense 5′-GTT AGG GTT TAA ATG TAc ACC CAA AGA CAA AAG-3 (SEQ ID NO 33). Successful introduction of the mutation was confirmed by sequencing. […]
Two days after transfection cells were treated with adefovir, tenofovir (Moravek, Brea, Calif.), or lamivudine at concentrations ranging from 0.1 μM to 10 μM. […] Replicative intermediates of HBV DNA were extracted as described by Summers et al., (1990) subjected to Southern blotting (Rang et al., 2002) and hybridized with a P^32-labelled probe generated with the Ready Prime Labelling System (Amersham UK) from a full-length HBV DNA fragment. […]

Nc1ccn([C@@H]2CS[C@H](CO)O2)c(=O)n1 [lamivudine, β-L-(−)-2′,3′-dideoxy-3′-thiacytidine]
efficacy with the wt compared with the variant: not significantly different
